This note sets out measurements from US20110014209A1.

These are yes or no findings as the source states them, for the method shown. Some binding calls cover weakened binding; strength is not graded here. Where a sequence is shown, tags or fusion partners need not be part of it.

This assay has as its target T1, CD81 MBP-LEL (maltose-binding protein fused to the CD81 large extracellular loop, residues 113-201) (human) (UniProt P60033).
T1 sequence: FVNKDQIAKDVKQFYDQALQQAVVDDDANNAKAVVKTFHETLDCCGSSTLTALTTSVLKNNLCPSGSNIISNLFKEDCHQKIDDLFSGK
The experiment in a line: CD81 MBP-LEL ELISA, purified E2-his proteins, H53 detection. (An ELISA detects its analyte on a solid surface through an enzyme-linked reagent.)

Consider “E2Δ2-his mature protein (from UniProt P27958 384-661)”, for which the binding entry is listed as “binds”.
